In the supplement of paper PMC6411743:
± gives the standard deviation of the averaged measurements. Some of the results follow.

The chains behind the UniProt entries cited, without tags or fusion partners. Where a name states a change or a piece, a line headed by the entry shows the natural chain unless it says otherwise.
UniProt P30291: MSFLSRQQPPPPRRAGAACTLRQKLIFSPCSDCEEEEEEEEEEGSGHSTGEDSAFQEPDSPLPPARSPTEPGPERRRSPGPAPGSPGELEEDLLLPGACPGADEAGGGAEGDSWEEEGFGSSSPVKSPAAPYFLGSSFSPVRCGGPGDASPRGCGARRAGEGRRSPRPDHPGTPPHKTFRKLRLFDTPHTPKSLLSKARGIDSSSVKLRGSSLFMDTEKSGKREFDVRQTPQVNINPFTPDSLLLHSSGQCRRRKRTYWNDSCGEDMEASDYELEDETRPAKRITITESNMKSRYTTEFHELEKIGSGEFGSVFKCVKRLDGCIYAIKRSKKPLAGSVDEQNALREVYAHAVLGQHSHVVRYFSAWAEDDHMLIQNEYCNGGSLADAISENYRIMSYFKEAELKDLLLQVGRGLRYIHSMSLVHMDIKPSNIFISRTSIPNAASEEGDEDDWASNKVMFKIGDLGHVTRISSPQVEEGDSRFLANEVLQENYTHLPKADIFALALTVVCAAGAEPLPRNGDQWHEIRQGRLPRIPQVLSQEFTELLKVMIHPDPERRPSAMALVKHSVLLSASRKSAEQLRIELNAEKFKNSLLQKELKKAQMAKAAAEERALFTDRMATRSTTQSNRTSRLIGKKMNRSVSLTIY
UniProt P27824: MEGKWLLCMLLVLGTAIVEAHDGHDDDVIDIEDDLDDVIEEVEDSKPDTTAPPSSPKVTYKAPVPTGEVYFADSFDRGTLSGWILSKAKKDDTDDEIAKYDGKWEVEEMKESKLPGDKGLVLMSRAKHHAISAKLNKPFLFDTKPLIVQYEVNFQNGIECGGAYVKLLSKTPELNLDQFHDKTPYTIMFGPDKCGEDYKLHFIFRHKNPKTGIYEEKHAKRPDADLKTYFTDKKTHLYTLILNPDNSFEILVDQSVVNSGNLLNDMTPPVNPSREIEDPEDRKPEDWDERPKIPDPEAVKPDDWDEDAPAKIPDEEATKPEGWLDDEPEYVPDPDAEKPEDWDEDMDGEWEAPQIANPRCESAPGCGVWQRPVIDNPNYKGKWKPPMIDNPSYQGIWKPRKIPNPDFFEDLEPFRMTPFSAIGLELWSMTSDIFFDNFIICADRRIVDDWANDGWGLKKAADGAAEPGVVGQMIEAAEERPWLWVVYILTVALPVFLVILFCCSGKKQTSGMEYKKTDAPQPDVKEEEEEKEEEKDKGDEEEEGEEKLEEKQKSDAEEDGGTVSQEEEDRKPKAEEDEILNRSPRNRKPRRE
UniProt P28161: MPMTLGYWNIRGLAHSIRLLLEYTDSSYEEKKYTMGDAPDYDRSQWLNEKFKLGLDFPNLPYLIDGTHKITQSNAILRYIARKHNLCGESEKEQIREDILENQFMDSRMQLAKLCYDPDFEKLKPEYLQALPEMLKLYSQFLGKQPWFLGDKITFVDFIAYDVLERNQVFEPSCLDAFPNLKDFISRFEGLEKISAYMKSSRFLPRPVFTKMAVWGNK
UniProt P49407: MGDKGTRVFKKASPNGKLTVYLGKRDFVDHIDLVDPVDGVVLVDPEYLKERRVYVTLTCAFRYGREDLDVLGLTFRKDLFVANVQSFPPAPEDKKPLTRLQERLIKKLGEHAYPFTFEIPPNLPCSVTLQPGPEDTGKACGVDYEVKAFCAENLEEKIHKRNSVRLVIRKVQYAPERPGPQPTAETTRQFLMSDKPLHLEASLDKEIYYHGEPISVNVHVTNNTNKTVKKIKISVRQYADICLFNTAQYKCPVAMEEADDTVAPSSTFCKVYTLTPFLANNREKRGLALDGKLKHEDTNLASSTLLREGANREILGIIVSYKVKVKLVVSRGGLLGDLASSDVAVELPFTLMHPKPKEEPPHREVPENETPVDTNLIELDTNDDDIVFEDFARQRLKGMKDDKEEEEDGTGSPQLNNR
UniProt P47813, whole entry: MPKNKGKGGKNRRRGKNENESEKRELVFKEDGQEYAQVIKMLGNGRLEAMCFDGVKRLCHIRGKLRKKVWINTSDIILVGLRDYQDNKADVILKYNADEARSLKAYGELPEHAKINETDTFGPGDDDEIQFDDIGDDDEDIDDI
UniProt P45985: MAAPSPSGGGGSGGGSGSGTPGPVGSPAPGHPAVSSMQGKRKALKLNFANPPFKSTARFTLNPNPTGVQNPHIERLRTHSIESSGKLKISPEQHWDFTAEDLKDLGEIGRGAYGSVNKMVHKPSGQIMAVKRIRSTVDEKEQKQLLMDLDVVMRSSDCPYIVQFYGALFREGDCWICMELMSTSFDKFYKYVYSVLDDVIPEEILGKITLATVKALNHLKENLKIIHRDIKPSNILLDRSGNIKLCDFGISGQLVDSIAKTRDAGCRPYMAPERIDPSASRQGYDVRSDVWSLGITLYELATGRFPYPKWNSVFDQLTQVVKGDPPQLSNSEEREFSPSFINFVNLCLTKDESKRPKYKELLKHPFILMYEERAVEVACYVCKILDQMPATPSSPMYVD
UniProt P35251: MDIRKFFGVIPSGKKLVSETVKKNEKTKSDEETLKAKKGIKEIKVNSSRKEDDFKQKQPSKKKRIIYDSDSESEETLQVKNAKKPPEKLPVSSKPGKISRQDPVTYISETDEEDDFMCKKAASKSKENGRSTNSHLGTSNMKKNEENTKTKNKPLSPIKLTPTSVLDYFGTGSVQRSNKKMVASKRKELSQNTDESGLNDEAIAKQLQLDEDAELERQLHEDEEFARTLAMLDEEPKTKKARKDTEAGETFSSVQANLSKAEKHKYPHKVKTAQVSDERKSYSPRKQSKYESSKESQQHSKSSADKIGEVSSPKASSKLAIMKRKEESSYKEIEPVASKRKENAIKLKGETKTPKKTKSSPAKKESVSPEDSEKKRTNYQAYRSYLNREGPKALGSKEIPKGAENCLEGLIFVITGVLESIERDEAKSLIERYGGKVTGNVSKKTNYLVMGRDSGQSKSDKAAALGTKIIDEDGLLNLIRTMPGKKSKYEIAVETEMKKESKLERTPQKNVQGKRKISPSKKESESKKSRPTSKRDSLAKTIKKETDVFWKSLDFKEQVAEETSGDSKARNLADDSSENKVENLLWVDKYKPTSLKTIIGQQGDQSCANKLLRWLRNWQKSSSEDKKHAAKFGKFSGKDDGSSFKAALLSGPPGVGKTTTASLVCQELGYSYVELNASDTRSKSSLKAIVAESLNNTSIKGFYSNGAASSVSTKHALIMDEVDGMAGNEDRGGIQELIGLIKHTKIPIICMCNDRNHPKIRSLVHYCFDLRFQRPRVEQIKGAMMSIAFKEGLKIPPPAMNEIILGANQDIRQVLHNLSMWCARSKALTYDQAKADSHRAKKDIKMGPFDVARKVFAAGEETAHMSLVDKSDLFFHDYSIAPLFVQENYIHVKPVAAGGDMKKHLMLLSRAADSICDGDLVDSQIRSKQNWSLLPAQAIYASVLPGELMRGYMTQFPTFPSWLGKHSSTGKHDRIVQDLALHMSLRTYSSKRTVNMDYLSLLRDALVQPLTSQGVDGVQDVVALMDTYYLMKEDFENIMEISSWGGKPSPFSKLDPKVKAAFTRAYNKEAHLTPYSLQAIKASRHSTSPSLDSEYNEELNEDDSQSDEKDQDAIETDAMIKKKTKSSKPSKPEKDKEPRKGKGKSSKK
UniProt P50395: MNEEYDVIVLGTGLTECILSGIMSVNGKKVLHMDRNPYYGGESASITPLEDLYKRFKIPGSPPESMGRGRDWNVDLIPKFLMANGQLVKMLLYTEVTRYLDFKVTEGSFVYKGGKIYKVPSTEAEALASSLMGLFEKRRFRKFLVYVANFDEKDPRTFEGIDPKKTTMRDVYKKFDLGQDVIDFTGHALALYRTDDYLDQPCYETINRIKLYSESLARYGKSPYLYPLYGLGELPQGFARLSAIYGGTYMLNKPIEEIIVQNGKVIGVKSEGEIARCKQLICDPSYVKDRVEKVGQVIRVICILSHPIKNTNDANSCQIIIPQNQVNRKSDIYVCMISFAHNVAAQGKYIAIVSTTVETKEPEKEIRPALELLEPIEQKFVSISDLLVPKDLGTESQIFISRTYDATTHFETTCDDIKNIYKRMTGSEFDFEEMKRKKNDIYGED
UniProt P30520: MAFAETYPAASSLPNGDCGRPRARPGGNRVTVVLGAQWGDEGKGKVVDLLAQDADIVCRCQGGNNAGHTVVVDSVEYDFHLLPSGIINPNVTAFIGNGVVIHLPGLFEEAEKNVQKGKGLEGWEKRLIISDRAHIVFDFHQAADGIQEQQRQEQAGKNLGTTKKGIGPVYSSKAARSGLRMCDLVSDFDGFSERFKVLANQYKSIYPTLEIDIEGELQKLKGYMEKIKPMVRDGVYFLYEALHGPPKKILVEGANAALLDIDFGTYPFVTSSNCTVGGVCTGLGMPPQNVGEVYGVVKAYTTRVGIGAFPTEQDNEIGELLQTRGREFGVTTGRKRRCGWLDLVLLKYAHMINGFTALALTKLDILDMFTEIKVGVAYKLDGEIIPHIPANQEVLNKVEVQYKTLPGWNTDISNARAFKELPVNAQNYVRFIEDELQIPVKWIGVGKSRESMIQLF
UniProt P40818: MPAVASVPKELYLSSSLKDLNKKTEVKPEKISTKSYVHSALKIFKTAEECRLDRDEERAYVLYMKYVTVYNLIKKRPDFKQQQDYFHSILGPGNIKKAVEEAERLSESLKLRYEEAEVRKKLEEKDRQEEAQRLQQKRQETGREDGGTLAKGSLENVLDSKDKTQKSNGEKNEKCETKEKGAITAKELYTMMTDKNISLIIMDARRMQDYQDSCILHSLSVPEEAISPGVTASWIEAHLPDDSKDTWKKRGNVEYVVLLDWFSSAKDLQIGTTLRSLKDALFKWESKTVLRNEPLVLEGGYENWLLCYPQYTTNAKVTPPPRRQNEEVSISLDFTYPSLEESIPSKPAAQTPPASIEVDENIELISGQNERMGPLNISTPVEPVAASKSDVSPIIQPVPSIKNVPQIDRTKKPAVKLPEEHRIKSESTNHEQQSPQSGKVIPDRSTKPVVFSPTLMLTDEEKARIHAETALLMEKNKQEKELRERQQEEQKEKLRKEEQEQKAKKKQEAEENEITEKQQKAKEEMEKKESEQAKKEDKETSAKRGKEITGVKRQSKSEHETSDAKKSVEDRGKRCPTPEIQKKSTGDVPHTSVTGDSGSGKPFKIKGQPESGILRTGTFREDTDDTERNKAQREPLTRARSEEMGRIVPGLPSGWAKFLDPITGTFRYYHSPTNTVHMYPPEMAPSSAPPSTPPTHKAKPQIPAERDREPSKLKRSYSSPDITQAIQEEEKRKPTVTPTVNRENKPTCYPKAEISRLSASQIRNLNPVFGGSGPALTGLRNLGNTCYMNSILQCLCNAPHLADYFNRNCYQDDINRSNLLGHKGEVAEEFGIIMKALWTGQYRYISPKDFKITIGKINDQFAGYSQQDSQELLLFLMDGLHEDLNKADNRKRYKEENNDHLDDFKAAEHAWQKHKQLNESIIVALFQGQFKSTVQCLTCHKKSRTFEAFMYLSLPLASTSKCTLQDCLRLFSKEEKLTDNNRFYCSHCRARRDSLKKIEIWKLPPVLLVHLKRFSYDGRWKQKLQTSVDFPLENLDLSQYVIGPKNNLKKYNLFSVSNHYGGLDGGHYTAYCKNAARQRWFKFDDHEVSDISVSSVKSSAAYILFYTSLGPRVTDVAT
UniProt P38919, whole entry: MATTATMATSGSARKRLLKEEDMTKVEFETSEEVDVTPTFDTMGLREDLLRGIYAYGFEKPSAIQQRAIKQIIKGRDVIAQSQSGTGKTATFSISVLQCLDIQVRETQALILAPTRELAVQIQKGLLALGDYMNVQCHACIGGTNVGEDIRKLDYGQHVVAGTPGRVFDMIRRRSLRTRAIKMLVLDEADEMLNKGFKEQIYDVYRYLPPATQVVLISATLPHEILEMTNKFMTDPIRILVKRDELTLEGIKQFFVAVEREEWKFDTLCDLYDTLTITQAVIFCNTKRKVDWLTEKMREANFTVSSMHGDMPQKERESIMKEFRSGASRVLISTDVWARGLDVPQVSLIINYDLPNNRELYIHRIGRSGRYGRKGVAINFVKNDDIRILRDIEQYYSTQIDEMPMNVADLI
UniProt P49773: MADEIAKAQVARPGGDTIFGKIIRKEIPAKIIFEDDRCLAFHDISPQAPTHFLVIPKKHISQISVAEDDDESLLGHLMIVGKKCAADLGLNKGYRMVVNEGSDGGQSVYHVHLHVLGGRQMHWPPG

Compound: Nc1nc2c(ncn2[C@@H]2O[C@H](COP(=O)(O)OP(=O)(O)OP(=O)(O)O)[C@@H](O)[C@H]2O)c(=O)[nH]1 [guanosine triphosphate]
Assay: NP40-soluble protein abundance relative to vehicle (solubility fold change) (ratio); higher = more soluble protein in presence of GTP
Procedure, shortened: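 Data come from three independent experiments in which Dounce-homogenised Jurkat crude lysate was treated at eight concentrations from 0.1 to 10 mM. Treatment ran 10 min at room temperature and then 3 min at 37 °C, after which 0.8% NP40 and benzonase were added for 60 min at 4 °C before ultracentrifugation. The supernatant underwent TMT labelling and LC-MS/MS, and vsn-normalised intensities were expressed as fold change against the detergent-processed vehicle in each replicate.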

Target | NP40-soluble protein abundance (concentration: 0.1mM) | NP40-soluble protein abundance (concentration: 0.5mM) | NP40-soluble protein abundance (concentration: 1mM) | NP40-soluble protein abundance (concentration: 2mM) | NP40-soluble protein abundance (concentration: 4mM) | NP40-soluble protein abundance (concentration: 6mM) | NP40-soluble protein abundance (concentration: 8mM) | NP40-soluble protein abundance (concentration: 10mM)
UniProt P48960 and related entries | 0.971 ± 0.076 | 0.957 ± 0.091 | 1.02 ± 0.088 | 0.99 ± 0.14 | 0.973 ± 0.11 | 0.943 ± 0.093 | 0.996 ± 0.085 | 1.03 ± 0.051
MAPKAPK2 (UniProt P49137) | 1.1 ± 0.094 | 0.939 ± 0.048 | 1.04 ± 0.062 | 0.963 ± 0.062 | 1.02 ± 0.036 | 0.911 ± 0.1 | 1.02 ± 0.044 | 0.877 ± 0.077
PHKA2 (UniProt P46019) | 1.05 ± 0.044 | 1.06 ± 0.048 | 1.08 ± 0.046 | 1.09 ± 0.067 | 1.11 ± 0.072 | 1.1 ± 0.074 | 1.15 ± 0.11 | 1.04 ± 0.12
UniProt P30291 and related entries | 1.08 ± 0.062 | 1.14 ± 0.0025 | 1.08 ± 0.034 | 1.17 ± 0.025 | 1.12 ± 0.033 | 1.14 ± 0.092 | 1.12 ± 0.07 | 1.05 ± 0.023
UniProt P28482 | 0.997 ± 0.047 | 1 ± 0.037 | 0.94 ± 0.058 | 0.919 ± 0.059 | 0.899 ± 0.064 | 0.909 ± 0.06 | 0.899 ± 0.08 | 0.852 ± 0.08
MTOR (UniProt P42345) | 1.12 ± 0.079 | 1.07 ± 0.072 | 1.02 ± 0.062 | 1.03 ± 0.12 | 1.04 ± 0.061 | 0.986 ± 0.067 | 1.01 ± 0.049 | 0.917 ± 0.071
UniProt P27824 and related entries | 0.965 ± 0.034 | 1 ± 0.013 | 0.95 ± 0.04 | 0.928 ± 0.048 | 0.883 ± 0.061 | 0.922 ± 0.06 | 0.906 ± 0.035 | 0.896 ± 0.051
GSTM2 (UniProt P28161) | 1.03 ± 0.058 | 0.947 ± 0.051 | 1 ± 0.1 | 0.976 ± 0.085 | 0.956 ± 0.1 | 0.932 ± 0.11 | 0.886 ± 0.091 | 0.899 ± 0.12
UniProt P49407 and related entries | 0.9714 ± 0.0065 | 0.962 ± 0.017 | 0.907 ± 0.02 | 0.91 ± 0.04 | 0.904 ± 0.054 | 0.89 ± 0.042 | 0.885 ± 0.034 | 0.869 ± 0.058
RPL12 (UniProt P30050) | 0.935 ± 0.018 | 0.946 ± 0.039 | 1.01 ± 0.059 | 0.919 ± 0.043 | 0.845 ± 0.079 | 0.823 ± 0.093 | 0.727 ± 0.12 | 0.828 ± 0.1
UniProt P33316 and related entries | 0.922 ± 0.048 | 0.924 ± 0.068 | 0.911 ± 0.063 | 0.897 ± 0.059 | 0.867 ± 0.055 | 0.883 ± 0.047 | 0.877 ± 0.06 | 0.909 ± 0.062
UniProt P35813 and related entries | 0.9854 ± 0.0082 | 0.976 ± 0.0069 | 0.964 ± 0.02 | 0.941 ± 0.031 | 0.922 ± 0.042 | 0.909 ± 0.046 | 0.924 ± 0.025 | 0.909 ± 0.025
UniProt P47813 | 0.9205 ± 0.0017 | 0.87 ± 0.011 | 0.9582 ± 0.0091 | 1.027 ± 0.0088 | 1.139 ± 0.0049 | 1.166 ± 0.0046 | 1.05 ± 0.14 | 1.25 ± 0.1
UniProt P36954 | 1.05 ± 0.072 | 1.05 ± 0.036 | 1.2 ± 0.13 | 1.22 ± 0.077 | 1.23 ± 0.15 | 1.18 ± 0.12 | 1.24 ± 0.17 | 1.27 ± 0.18
FNTB (UniProt P49356) | 1.02 ± 0.16 | 0.944 ± 0.093 | 0.976 ± 0.032 | 1.02 ± 0.017 | 0.965 ± 0.12 | 0.905 ± 0.085 | 0.966 ± 0.064 | 0.96 ± 0.12
UniProt P34896 and related entries | 0.987 ± 0.043 | 1.01 ± 0.034 | 0.97 ± 0.015 | 0.967 ± 0.024 | 0.998 ± 0.01 | 0.936 ± 0.029 | 0.957 ± 0.012 | 0.954 ± 0.015
UniProt P45985 and related entries | 0.975 ± 0.05 | 0.977 ± 0.033 | 0.944 ± 0.069 | 0.875 ± 0.083 | 0.881 ± 0.093 | 0.857 ± 0.11 | 0.903 ± 0.024 | 0.873 ± 0.056
UniProt P35251 and related entries | 1.04 ± 0.019 | 1.11 ± 0.054 | 1.18 ± 0.049 | 1.24 ± 0.071 | 1.36 ± 0.1 | 1.4 ± 0.087 | 1.45 ± 0.14 | 1.46 ± 0.12
UniProt P50395 and related entries | 0.966 ± 0.022 | 0.999 ± 0.023 | 0.916 ± 0.02 | 0.899 ± 0.0095 | 0.882 ± 0.012 | 0.89 ± 0.017 | 0.859 ± 0.04 | 0.829 ± 0.057
HSPA4 (UniProt P34932) | 0.951 ± 0.05 | 0.98 ± 0.058 | 0.949 ± 0.056 | 0.919 ± 0.059 | 0.903 ± 0.056 | 0.912 ± 0.05 | 0.92 ± 0.053 | 0.916 ± 0.06
UniProt P30520 | 0.969 ± 0.018 | 0.959 ± 0.025 | 0.964 ± 0.035 | 0.902 ± 0.043 | 0.924 ± 0.034 | 0.915 ± 0.043 | 0.923 ± 0.048 | 0.884 ± 0.049
RPL5 (UniProt P46777) | 0.986 ± 0.019 | 1.01 ± 0.03 | 1 ± 0.046 | 0.941 ± 0.077 | 0.895 ± 0.094 | 0.87 ± 0.1 | 0.837 ± 0.08 | 0.888 ± 0.094
IL2RG (UniProt P31785) | 0.962 ± 0.074 | 0.927 ± 0.11 | 0.961 ± 0.085 | 0.934 ± 0.1 | 0.952 ± 0.074 | 0.929 ± 0.029 | 0.93 ± 0.11 | 0.935 ± 0.08
USP8 (UniProt P40818) | 1.02 ± 0.039 | 1 ± 0.049 | 0.984 ± 0.048 | 0.949 ± 0.059 | 0.961 ± 0.053 | 0.953 ± 0.044 | 1.01 ± 0.063 | 0.94 ± 0.065
EPS15 (UniProt P42566) | 0.963 ± 0.079 | 0.95 ± 0.065 | 0.979 ± 0.082 | 0.924 ± 0.091 | 0.939 ± 0.083 | 0.933 ± 0.07 | 0.974 ± 0.067 | 0.96 ± 0.086
UniProt P35240 and related entries | 0.912 ± 0.09 | 0.926 ± 0.1 | 0.901 ± 0.12 | 0.876 ± 0.16 | 0.839 ± 0.15 | 0.911 ± 0.11 | 0.851 ± 0.06 | 0.896 ± 0.11
EIF4A3 (UniProt P38919) | 1.04 ± 0.086 | 1.08 ± 0.13 | 0.889 ± 0.054 | 0.928 ± 0.15 | 0.88 ± 0.099 | 0.869 ± 0.099 | 0.809 ± 0.028 | 0.777 ± 0.08
FNTA (UniProt P49354) | 0.922 ± 0.04 | 0.921 ± 0.082 | 0.938 ± 0.058 | 0.958 ± 0.029 | 0.954 ± 0.014 | 0.9151 ± 0.0052 | 0.899 ± 0.066 | 0.908 ± 0.033
HINT1 (UniProt P49773) | 0.907 ± 0.041 | 0.8807 ± 0.0074 | 0.9122 ± 0.0027 | 0.877 ± 0.031 | 0.848 ± 0.021 | 0.869 ± 0.038 | 0.843 ± 0.076 | 0.86 ± 0.047
UniProt P47756-2 | 0.967 ± 0.058 | 0.985 ± 0.056 | 0.972 ± 0.052 | 0.948 ± 0.061 | 0.953 ± 0.059 | 0.951 ± 0.058 | 0.965 ± 0.054 | 0.952 ± 0.059

Reformatted tab-delimited: entries from further up.
Target	NP40-soluble protein abundance (concentration: 0.1mM)	NP40-soluble protein abundance (concentration: 0.5mM)	NP40-soluble protein abundance (concentration: 1mM)	NP40-soluble protein abundance (concentration: 2mM)	NP40-soluble protein abundance (concentration: 4mM)	NP40-soluble protein abundance (concentration: 6mM)	NP40-soluble protein abundance (concentration: 8mM)	NP40-soluble protein abundance (concentration: 10mM)
RPL12 (UniProt P30050)	0.935 ± 0.018	0.946 ± 0.039	1.01 ± 0.059	0.919 ± 0.043	0.845 ± 0.079	0.823 ± 0.093	0.727 ± 0.12	0.828 ± 0.1
UniProt P33316 and related entries	0.922 ± 0.048	0.924 ± 0.068	0.911 ± 0.063	0.897 ± 0.059	0.867 ± 0.055	0.883 ± 0.047	0.877 ± 0.06	0.909 ± 0.062
UniProt P35813 and related entries	0.9854 ± 0.0082	0.976 ± 0.0069	0.964 ± 0.02	0.941 ± 0.031	0.922 ± 0.042	0.909 ± 0.046	0.924 ± 0.025	0.909 ± 0.025
UniProt P47813	0.9205 ± 0.0017	0.87 ± 0.011	0.9582 ± 0.0091	1.027 ± 0.0088	1.139 ± 0.0049	1.166 ± 0.0046	1.05 ± 0.14	1.25 ± 0.1
UniProt P36954	1.05 ± 0.072	1.05 ± 0.036	1.2 ± 0.13	1.22 ± 0.077	1.23 ± 0.15	1.18 ± 0.12	1.24 ± 0.17	1.27 ± 0.18
FNTB (UniProt P49356)	1.02 ± 0.16	0.944 ± 0.093	0.976 ± 0.032	1.02 ± 0.017	0.965 ± 0.12	0.905 ± 0.085	0.966 ± 0.064	0.96 ± 0.12
UniProt P34896 and related entries	0.987 ± 0.043	1.01 ± 0.034	0.97 ± 0.015	0.967 ± 0.024	0.998 ± 0.01	0.936 ± 0.029	0.957 ± 0.012	0.954 ± 0.015
